Here are results for two substances from publication PMC11043371.

Protein sequences, listed by entry. Tags and fused reporters are not part of them.
UniProt P13010: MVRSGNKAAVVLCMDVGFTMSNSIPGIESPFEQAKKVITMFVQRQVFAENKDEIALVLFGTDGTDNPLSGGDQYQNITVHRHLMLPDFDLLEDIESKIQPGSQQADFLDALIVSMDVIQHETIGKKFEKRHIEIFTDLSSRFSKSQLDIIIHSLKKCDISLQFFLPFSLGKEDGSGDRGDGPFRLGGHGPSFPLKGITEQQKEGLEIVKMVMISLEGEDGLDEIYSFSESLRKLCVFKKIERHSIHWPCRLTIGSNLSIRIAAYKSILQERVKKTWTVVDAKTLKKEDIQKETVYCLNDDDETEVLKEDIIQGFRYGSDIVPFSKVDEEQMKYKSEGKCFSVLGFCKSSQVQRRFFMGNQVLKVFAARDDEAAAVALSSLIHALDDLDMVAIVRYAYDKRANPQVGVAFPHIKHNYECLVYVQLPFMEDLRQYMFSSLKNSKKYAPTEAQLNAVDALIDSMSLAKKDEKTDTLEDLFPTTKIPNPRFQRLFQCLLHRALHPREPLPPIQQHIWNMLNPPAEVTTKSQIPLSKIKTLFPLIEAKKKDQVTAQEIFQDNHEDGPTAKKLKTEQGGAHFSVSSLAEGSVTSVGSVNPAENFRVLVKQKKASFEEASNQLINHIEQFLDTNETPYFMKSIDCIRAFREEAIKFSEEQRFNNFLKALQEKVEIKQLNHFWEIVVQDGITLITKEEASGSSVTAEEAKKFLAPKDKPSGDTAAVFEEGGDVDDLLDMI
UniProt P12956: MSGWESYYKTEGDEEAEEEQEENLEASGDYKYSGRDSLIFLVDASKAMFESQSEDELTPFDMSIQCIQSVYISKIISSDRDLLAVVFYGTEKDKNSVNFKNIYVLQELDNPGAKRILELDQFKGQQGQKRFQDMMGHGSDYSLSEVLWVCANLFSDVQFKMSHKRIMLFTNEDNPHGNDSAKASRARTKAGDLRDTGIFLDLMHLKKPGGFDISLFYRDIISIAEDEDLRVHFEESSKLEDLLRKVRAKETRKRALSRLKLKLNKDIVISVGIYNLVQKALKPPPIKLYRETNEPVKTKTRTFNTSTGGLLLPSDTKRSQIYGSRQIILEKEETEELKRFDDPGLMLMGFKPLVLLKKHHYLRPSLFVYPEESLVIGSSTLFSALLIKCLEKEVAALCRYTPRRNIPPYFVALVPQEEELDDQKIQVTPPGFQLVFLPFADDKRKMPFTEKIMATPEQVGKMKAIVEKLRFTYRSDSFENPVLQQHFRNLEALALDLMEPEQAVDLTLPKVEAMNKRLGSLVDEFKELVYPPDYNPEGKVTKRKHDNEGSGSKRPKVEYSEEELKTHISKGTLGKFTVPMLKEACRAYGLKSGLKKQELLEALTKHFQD

The test concerns the target T1, Ferroptosis suppressor protein 1 (human (endogenous in HEK 293T)) (UniProt Q9BRQ8).
T1 sequence: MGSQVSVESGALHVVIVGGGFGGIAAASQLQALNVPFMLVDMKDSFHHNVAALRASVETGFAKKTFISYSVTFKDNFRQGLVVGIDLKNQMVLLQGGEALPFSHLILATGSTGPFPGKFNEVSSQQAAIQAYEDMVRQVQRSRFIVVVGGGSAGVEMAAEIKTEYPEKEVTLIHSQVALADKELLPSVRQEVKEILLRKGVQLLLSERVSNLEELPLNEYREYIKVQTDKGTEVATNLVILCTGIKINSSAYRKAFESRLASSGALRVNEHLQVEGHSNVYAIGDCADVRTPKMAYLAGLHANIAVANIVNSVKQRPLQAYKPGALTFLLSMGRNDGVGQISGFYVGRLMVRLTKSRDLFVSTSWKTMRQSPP
Description: affinity purification with mass spectrometry; Co-IP with anti-FSP1 antibody from HEK 293T lysate (IP lysis buffer, protein A/G magnetic beads, 4 °C), then mass spectrometry.

No constants are given. Whether binding was seen depends on the method and setting. In cells and extracts the contact can be indirect. These calls come from enrichment with a bait or labelling near it, and not all partners need be listed.

For Ku80 (from UniProt P13010 1-732), the binding result is recorded as “binds”.
As for Ku70 (from UniProt P12956 1-609), the binding entry is reported as “binds”.
